From paper PMC5908797, “Evolutionary plasticity of the NHL domain underlies distinct solutions to RNA recognition” come the findings set out here.

Chains of the proteins cited; added tags and fusions are not shown. Residues count along the entry.
UniProt E7FAM5, 435-824: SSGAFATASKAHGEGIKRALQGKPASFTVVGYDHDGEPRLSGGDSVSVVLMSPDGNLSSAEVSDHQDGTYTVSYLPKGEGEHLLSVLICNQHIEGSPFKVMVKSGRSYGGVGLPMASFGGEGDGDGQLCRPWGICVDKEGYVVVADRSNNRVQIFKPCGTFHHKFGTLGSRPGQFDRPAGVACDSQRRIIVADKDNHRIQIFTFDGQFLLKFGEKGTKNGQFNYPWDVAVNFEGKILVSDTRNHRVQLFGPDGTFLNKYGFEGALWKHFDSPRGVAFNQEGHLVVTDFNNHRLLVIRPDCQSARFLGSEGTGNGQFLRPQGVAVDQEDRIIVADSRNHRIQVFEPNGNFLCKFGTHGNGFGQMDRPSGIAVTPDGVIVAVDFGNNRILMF

Data set [1] concerns the target DrLIN41 filamin-NHL (Danio rerio) (UniProt E7FAM5). Nature of the data set: fluorescence polarization. The conditions noted are these: stated very similar to CeLIN41; FP: 20 mM HEPES, 200 mM NaCl, 0.05% Tween20, 100 nM Cy5-RNA, 30 min room temp; recombinant protein; residues 435-824; protein details: N-terminal His, 3C cleavable (not removed); label: 5'-Cy5.
Data set [2] addresses T1, CeLIN41 filamin-NHL (Caenorhabditis elegans) (UniProt Q9U489).
T1 sequence (looked up): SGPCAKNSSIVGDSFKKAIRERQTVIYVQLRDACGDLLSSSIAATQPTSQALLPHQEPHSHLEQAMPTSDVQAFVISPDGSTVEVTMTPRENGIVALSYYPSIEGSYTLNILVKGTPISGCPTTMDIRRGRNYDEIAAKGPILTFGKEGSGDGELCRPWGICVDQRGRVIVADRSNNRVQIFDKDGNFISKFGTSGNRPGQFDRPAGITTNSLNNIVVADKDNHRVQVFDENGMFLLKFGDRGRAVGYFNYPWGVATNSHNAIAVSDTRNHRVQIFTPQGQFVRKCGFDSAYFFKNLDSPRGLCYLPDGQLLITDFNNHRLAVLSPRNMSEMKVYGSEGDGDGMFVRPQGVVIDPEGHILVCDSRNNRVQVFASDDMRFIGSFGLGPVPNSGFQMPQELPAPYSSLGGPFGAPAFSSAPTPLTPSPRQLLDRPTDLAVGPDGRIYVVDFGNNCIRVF
Nature of the data set: fluorescence polarization. The conditions noted are these: FP: 20 mM HEPES, 200 mM NaCl, 0.05% Tween20, 100 nM Cy5-RNA, 30 min room temp, recombinant protein, residues 691-1147, protein details: N-terminal Strep tag, TEV site, label: 5'-Cy5.

In data set [3] the target is T1, CeLIN41 filamin-NHL (Caenorhabditis elegans). Put plainly: EMSA. The following applies: EMSA: 1x of 2x buffer (20 mM Hepes pH 8, 100 mM KCl, 200 mM NaCl, 0.2 mM EDTA, 20 mM DTT, 2 mM MgCl2, 2 mM CaCl2, 0.2 mM ZnSO4, 60% glycerol, heparin, E. coli tRNA), recombinant protein, residues 691-1147, protein details: N-terminal Strep tag, TEV site, label: 32P (radioactive) body label.

For part of these data: A negative result means that nothing was seen under these conditions. For part of these data: At least one verdict was read from the data and is not stated in words by the source. A weaker result is weaker than the reference pair of the same experiment. For part of these data: Where a protein sequence is shown, tags need not be part of it. For part of these data: For at least one entry, the source does not settle the construct or the ends of the probe.

With GCUGACCAACUCC [Ctrl (5-nt loop)], the binding result in data set [1] was “no binding”.

As for “GGAGACCAUCUCC [L1.4 (Mut4) stem -1/+1 U-A->A-U]”, the binding result in data set [2] and in data set [1] was “binds more weakly” throughout. As for “GGAGCCCAGCUCC [L1.5 (Mut5) stem -1/+1 U-A->C-G]”, the binding result in data set [2] and in data set [1] was “binds more weakly” throughout.

As to “GGAGGCCACCUCC [L1.6 (Mut6) stem -1/+1 U-A->G-C]”, the binding result in data set [2] (most severe effect of stem mutants) and in data set [1] was “binds more weakly” in each case. As for “GGAGUCCCACUCC [L1.2 (Mut2) loop III A->C]”, the binding result in data set [2] and in data set [1] was “binds more weakly” throughout. Take “GGAGUCCGACUCC [L1.3 (Mut3) loop III A->G]”: the binding result in data set [2] (least effect of loop III mutants) and in data set [1] was “binds more weakly” each time. Consider “GGAGUCCUACUCC [L1.1 (Mut1) loop III A->U]”, for which the binding result in data set [2] and in data set [1] was “binds more weakly” each time.

For the sequence “GUUCCGAACCAAUUCGCCUAGCGAACCUUGGACUCCAACUCCGUUUUUACUCUUUUCUGAAAAGAGCCUACUAAAUAUUGGAACUAUAAUCAAACUAUUCCAUCAAAUCGACACACCUACUAGAUAUCAAAUAUCUAAUACUGGAACCAAGGCUUGGGUAACCUGAAACUGUGCGAAUUUGGAGCAGAAAUAUU [lin-29A mut2]”, the binding result in data set [3] (smaller complexes) is “binds more weakly”. “GUUCCGAACCAAUUCGCCUAGCGAACCUUGGACUCCAACUCCGUUUUUACUGUUUUCUGAAAAGAGCCUACUAAAUAUUGGAACUAUAAUCAAACUAUUGGAUCAAAUCGACACACCUACUACAUAUCAAAUAUCUAAUACUGGAACCAAGGCUUGGGUAACCUGAAACUGUGCGAAUUUGGAGCAGAAAUAUU [lin-29A mut1]”: the binding result in data set [3] was “binds more weakly”.
